Assay results as given in PubChem BioAssay AID2417 (National Center for Advancing Translational Sciences (NCATS), 2010).
About 4,300 (3.1%) of roughly 140,000 compounds were called active. This list was built around the results that the source calls inconclusive (neither active nor inactive); the mix of calls is not that of the screen.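 The calls were made as follows: active = readout at or below -70, meaning at least 70% loss of cells showing the perinucleolar compartment, a nuclear body marking cancer cells; inconclusive = readout between -30 and a set limit; inactive = the rest.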

Test: High Content Assay for Compounds that inhibit the Assembly of the Perinucleolar Compartment;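 also: plate controls were DMSO wells for no effect and camptothecin positive control wells for full effect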
Conditions: PC3M PTB-GFP, PNC prevalence imaging, 16 h; at 10 µM; stronger effect = lower value
Procedure, shortened: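 Compounds are pinned in duplicate onto adhered PC3M cells stably expressing GFP-tagged PTB and incubated 16 h at 37 C. Cells are then fixed, nuclei stained with Hoechst, and PNC-positive cells counted.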

SMILES	activity change (PNC), negative = inhibition
CC(C)Cc1nnc(NC(=O)CSc2ccccn2)s1	inconclusive: -50.3%
Cc1ccc(NC(=S)NNC(=O)c2c(Cl)c(C)nn2C)cc1	inconclusive: -39.8%
CCN(CC)S(=O)(=O)c1cccc(-c2nnc(SCC(=O)NCCC3=CCCCC3)n2N)c1	inactive: -17.2%
CCOc1ccc(OCCOCCNCCOC)cc1	inactive: 33.6%
O=C(Cc1ccccc1)Nc1ccccc1N1CCOCC1	inconclusive: -30.3%
COc1ccc(C(=O)N2CCN(S(=O)(=O)c3ccccc3)CC2)c(OC)c1	inconclusive: -58.6%
O=C(CN1C(=O)CSC1=O)c1ccccc1	inconclusive: -39.1%
Cc1nnc(SCc2ccc(F)cc2)n1NC/C=C/c1ccccc1	inactive: 41.4%
O=C(CN1CCOCC1)Nc1nc2cc([N+](=O)[O-])ccc2s1	inactive: 25.4%
CCCCn1c(CN2CCN(c3ccc(F)cc3)CC2)nc2c1c(=O)n(C)c(=O)n2C	inconclusive: -48.2%
Cc1cc2cc3c(cc2nc1SCC(=O)Nc1nc(C)c(C)s1)OCO3	inconclusive: -40.4%
CCOCCCNc1nc2ccccc2[nH]1	inconclusive: -59.5%
O=C(NC(=S)Nc1ccc(S(=O)(=O)Nc2nccs2)cc1)c1cccc(F)c1	inconclusive: -67.9%
CCSc1nc(=O)n(-c2ccccc2)c(C)c1C(C)=O	inconclusive: -53.3%
Cc1ccc(S(=O)(=O)Nc2ccc(-c3cn4ccc(C)cc4n3)cc2)cc1	inconclusive: -64.5%
COc1ccc(CN(C(=O)CN2C(=O)C(C)Oc3ccccc32)C2CCCC2)c(OC)c1 (configuration not stated)	inconclusive: -30.7%
COC(=O)c1ccc(COc2nc(C)cc(C)c2C#N)o1	inconclusive: -39.7%
CCc1nc(SCC(=O)NCCc2ccccc2)n[nH]1	inconclusive: -35.6%
CC1CCCC(NC(=O)c2ccc3c(c2)N(Cc2ccccc2)C(=O)CS3=O)C1C (configuration not stated)	inconclusive: -46.5%
O=C(NCc1cccs1)Nc1ccc2c(c1)OCO2	inconclusive: -59.8%
COc1ccccc1-c1nnc(Nc2nc3c(OC)cccc3s2)o1	active: -86.6%
O=C(Nc1ccccc1)c1ccccc1OCC(O)CN1C(=O)c2ccccc2S1(=O)=O (configuration not stated)	inactive: 5.74%
O=C1CCCN1CN1CCCCC1	inactive: 11.4%

Already shown: an excerpt of the list.
SMILES	activity change (PNC), negative = inhibition
CCOCCCNc1nc2ccccc2[nH]1	inconclusive: -59.5%
O=C(NC(=S)Nc1ccc(S(=O)(=O)Nc2nccs2)cc1)c1cccc(F)c1	inconclusive: -67.9%
CCSc1nc(=O)n(-c2ccccc2)c(C)c1C(C)=O	inconclusive: -53.3%
Cc1ccc(S(=O)(=O)Nc2ccc(-c3cn4ccc(C)cc4n3)cc2)cc1	inconclusive: -64.5%
COc1ccc(CN(C(=O)CN2C(=O)C(C)Oc3ccccc32)C2CCCC2)c(OC)c1 (configuration not stated)	inconclusive: -30.7%

(listing goes on)

SMILES	activity change (PNC), negative = inhibition
CN(c1ccccc1)S(=O)(=O)c1ccc(NC(=S)NC(=O)c2ccccc2)cc1	inactive: 45.4%
CCC(CO)[n+]1c(C)cc(/C=C2\Sc3ccccc3N2Cc2ccccc2)cc1C (configuration not stated)	inconclusive: -48.5%
O=C(OC1CCOC1=O)c1cccc(S(=O)(=O)Nc2ccc(F)cc2)c1 (configuration not stated)	inconclusive: -55.8%
CCn1nnnc1-c1ccc(OC)c(S(=O)(=O)Nc2ccc(C)c(C)c2)c1	inconclusive: -37.7%
CC(C)Cc1nc2ccccc2n1CCc1ccccc1	inconclusive: -33.6%
CCCc1ccc(Oc2cc(Cl)nc(N)n2)cc1	inconclusive: -57.3%
COC(=O)NC1CSCC1OC(=O)CN1C(=O)c2ccccc2C1=O (configuration not stated)	active: -84.6%
CCCCNC(=O)NCc1cnn(C)c1C	inconclusive: -41.8%
CCOC(=O)C1=C(C)NC(=O)NC1C (configuration not stated)	inconclusive: -63.9%
O=C(Cc1cccc2ccccc12)Nc1nnc(-c2cccc([N+](=O)[O-])c2)s1	inactive: 2.29%
O=C(Nc1ccccc1OC(F)F)c1cc2c(s1)CCC2	inconclusive: -45.4%
O=C(Nc1ccc2c(c1)CCC2)C1CCN(c2c3c(nc4ncnn24)CCC3)CC1	inactive: 19.4%
O=C(CSc1nc2c(sc3ccccc32)c(=O)n1-c1ccccc1)NCc1ccco1	inconclusive: -46%
c1ccc(OCc2nc3ccccc3[nH]2)cc1	inconclusive: -35.3%
Cc1ccc(S(=O)(=O)N(C)Cc2cc3ccccc3[nH]c2=O)cc1	active: -98.7%
C=CCNC(=O)CSc1cc([N+](=O)[O-])cc(S(=O)(=O)Cc2ccccc2)c1	inactive: 13.8%
CCOC(=O)n1c(=O)n(Cc2c(Cl)cccc2Cl)c2ccccc21	inactive: 25.8%
COc1ccc(OC)c(NC(=O)COC(=O)c2ccc(S(=O)(=O)N3CCOCC3)cc2)c1	inconclusive: -41.7%
O=C(CSc1nnc(CNC(=O)C23CC4CC(CC(C4)C2)C3)n1-c1ccc(F)cc1)Nc1ccccc1	inconclusive: -50.7%
Cc1nn(-c2ccccc2)c(Cl)c1/C=C1\SC(=S)NC1=O	inconclusive: -35.6%
COc1ccc(CCN2C(=O)C3C4CCC(C4=C(C)C)C3C2=O)cc1OC (configuration not stated)	inactive: 26.1%
O=C(/C=C/c1cccs1)c1ccc(NC(=O)c2ccccc2F)cc1	inconclusive: -50.9%
Cc1cc2nc(-c3ccc(SCC(=O)Nc4nccs4)nc3)[nH]c2cc1C	inconclusive: -50%

SMILES	activity change (PNC), negative = inhibition
CC(=O)N1[C@H](Cc2ccccc2)C=C[C@]1(C)C(=O)NCc1ccc(C)o1	inactive: 24.5%
CS(=O)(=O)N1CCN(c2nc3ccccc3s2)CC1	inactive: -12.9%
Cc1ccc(SCCNC(=O)c2ccccc2)cc1	inconclusive: -54.5%
O=C(NNC(=O)c1ccc([N+](=O)[O-])o1)c1ccccc1	inconclusive: -42%
Cc1ccc(C(=O)Nc2ccon2)cc1S(=O)(=O)N1CCCCCC1	inconclusive: -74.3%
CCC(=O)NC(c1ccccc1OC)c1ccc2cccnc2c1O (configuration not stated)	active: -100%
O=C(O)CC(Cn1cnnn1)c1ccccc1 (configuration not stated)	inconclusive: -43.6%
Cc1ccc(C2CN(c3ccccc3)CC2C(=O)c2ccc(F)cc2)cc1 (configuration not stated)	inactive: 32.6%
CC1=Nc2ccccc2N=C(NC(=O)CSc2nnnn2-c2ccccc2)C1c1ccccc1 (configuration not stated)	inconclusive: -37.6%
Cc1ccc(N2C(S)=C(C#N)C(=O)NC2c2cccs2)cc1 (configuration not stated)	active: -114%
COc1cc(C(=O)NCc2nnc(SCC(=O)N3CCC(C)CC3)o2)cc(OC)c1OC	inconclusive: -47.5%
CCCc1noc2c1/C(=N\O)CC(CC(C)SCC)C2 (configuration not stated)	inconclusive: -50%
O=C(Nc1ccccc1)c1cc(S(=O)(=O)N2CCSCC2)ccc1Cl	inconclusive: -70.9%
CCCCn1c(SCC(=O)c2ccc(O)c(O)c2)nc2ccsc2c1=O	inactive: -24.8%
CC1=C(OC(=O)c2ccccc2)C(C)(C)C(c2ccc(Br)cc2)OC1=O (configuration not stated)	inconclusive: -51.9%
COc1cc2c(cc1Cl)/C(=C\CCN(C)C)c1ccccc1S2	inconclusive: -38.5%
COCCN(CCOC)C(=O)c1c[nH]c2ccc(S(=O)(=O)N(C)c3ccc(F)cc3)cc2c1=O	inconclusive: -39.1%
CCc1nc2n[nH]c(N)c2c2c1CSC(C)(C)C2	inconclusive: -35.2%
COc1ccc2nc(SCC(C)=O)c(C#N)cc2c1	inconclusive: -32.3%
Cn1c(Oc2ccc3c(c2)OCO3)nc2c1c(=O)n(Cc1ccccc1)c(=O)n2C	inconclusive: -58.3%
CCCCN(Cc1ccccc1)S(=O)(=O)c1cc(Br)cc2c1N(C(C)=O)C(C)C2 (configuration not stated)	inactive: 27.1%
CS(=O)(=O)Nc1ccc(C(=O)NCc2ccccn2)cc1	inconclusive: -45%
Nc1cc(OC(=O)c2ccccc2Br)nn1S(=O)(=O)c1ccccc1	inconclusive: -52.6%

SMILES	activity change (PNC), negative = inhibition
COc1cc(NS(=O)(=O)c2ccc(N=Cc3c(C)[nH]n(-c4ccccc4)c3=O)cc2)nc(OC)n1	inactive: -26.4%
COc1oc(-c2ccccc2C)nc1C(F)(F)F	inconclusive: -51.1%
CCOC(=O)CSc1nnc(CNc2ccc(F)cc2)o1	inconclusive: -67.2%
CCCn1c(SCC(=O)Nc2ccccc2N2CCOCC2)nc2c1c(=O)n(C)c(=O)n2C	inconclusive: -33.4%
CCN(CC)c1ccc(/C=N/NC(=S)NCc2ccccc2)c(O)c1	inconclusive: -64.9%
CCC(=O)Nc1ccccc1N1CCN(S(C)(=O)=O)CC1	inconclusive: -44.1%
Cc1ccc(CN2CCNC(=O)C2CC(=O)O)cc1 (configuration not stated)	inconclusive: -32%
O=C(O)c1cccc2[nH]c(C(F)(F)F)nc12	inconclusive: -47.2%
C[C@@H]1O[C@@H](Oc2c(-c3cc(O)c(O)c(O)c3)oc3cc(O)cc(O)c3c2=O)[C@H](O)[C@H](O)[C@H]1O	inactive: 51.9%
O=C(NCc1ccco1)c1cc(-c2ccco2)on1	inconclusive: -62.5%
CCOC(=O)C1=C(C)Nc2ncnn2C1c1cc(Br)ccc1F (configuration not stated)	inconclusive: -32.9%
CC(=O)NC1=NC(=O)/C(=C/N2CCOCC2)S1	inconclusive: -38.8%
Cc1nnc(SCC(C)C)[nH]c1=O	inactive: 6.79%
COc1ccc(-c2cn3cccnc3n2)cc1F	inactive: 4.82%
Cn1c2c(c(=O)n(C)c1=O)C(c1ccc(Br)cc1)Nc1ccccc1O2 (configuration not stated)	inactive: 22.9%
COc1cc(NC(=O)c2ccc(Cl)cc2)c(OC)cc1NC(=O)CN1CCOCC1	inconclusive: -60%
N=c1n(CCO)c2ccccc2n1Cc1ccccc1Cl	inconclusive: -55.9%
Cn1c(SCC(=O)NC(C)(C)C)nnc1-c1cnccn1	inactive: 27.1%
CC(=O)Nc1nc2c(ncn2COCCOC(C)=O)c(=O)[nH]1	inconclusive: -56.8%
COc1ccc(OCC(=O)NNC(=O)c2cccnc2)cc1	inactive: 11.7%
Cc1ccc(S(=O)(=O)Nc2nc(C)c(NC(=O)Nc3ccc(Cl)cc3Cl)s2)cc1	inconclusive: -43.2%
Cc1ccccc1OCCSCc1nc2ccccc2[nH]1	inconclusive: -30.3%
Cc1ccc(CNC(=O)c2ccccc2NC(=O)CSc2nnnn2C)cc1	inconclusive: -49.7%
